Experimental data: patent publication US6399570B1, “Antimicrobial/endotoxin neutralizing polypeptide” (priority 1999, dated 2002)
Read-outs that look alike come from different tables or passages of the source. Not every detail of the peptide structures is certain; ends, links or a residue may be inferred. Where a SMILES comes first, the peptide text is derived from it.

Test system: RAW 264.7 cells
Test: Endotoxin induced TNF-α secretion by RAW 264.7 cells
Type: cell-based, murine
Conditions: endotoxin 10 ng/ml
Experimental: Suppression of endotoxin-induced TNF-α secretion by a macrophage cell line RAW 264.7 was also measured (Kelly et al., Infect. Immun. 59: 4491-6 (1991)). RAW 264.7 cells secret TNF-α upon exposure to endotoxin (M. R. Ruff and G. E. Gifford, Lymphokines 2: 235-272 (1981)). […] Similar to the results of the LAL assay, the potency of LF-33 varied depending on the type of endotoxin. The LF-33 concentration needed to suppress 50% TNF-α secretion induced by endotoxin (10 ng/ml) was approximately 0.01 μM for E. coli LPS and lipid A, 0.1 μM for LPS from P. aeruginosa, and 0.5 μM for LPS from S. abortus equi and N. meningitidis.
Endotoxin induced TNF-α secretion by RAW 264.7 cells. The murine macrophage cell line RAW 264.7 was obtained from the American Type Culture Collection (ATCC, Rockville, Md.) and maintained as described previously (Jeremy, B., Immunol. Today. 16: 417-419 (1995)). The concentration of endotoxin in all buffers and media was controlled to below 0.1 EU/ml. The following protocol was essentially described before and used here with minor modifications (Kelly et al., Infect. Immun. 59: 4491-6 (1991)). Each well of a 96-well tissue culture plate was seeded with 150 μl RAW 264.7 cells at 10^6 cells per ml DMEM (Life Technologies, Gaithersburg, Md.) supplemented with 10% heat-treated fetal bovine serum (Life Technologies), 25 mM HEPES (N-2-hydroxyethylpiperazine-N′-2-ethanesulfonic acid; pH 7.3), penicillin (60 U/ml) and streptomycin (60 μg/ml). After overnight incubation at 37° C. in a 6% CO2 incubator, the medium was aspirated and cells washed with 3-changes of endotoxin-free Hank's balanced salt solution (HBSS, Life Technologies) supplemented with 25 mM HEPES (pH 7.3). Control endotoxin (10 ng/ml) and test materials were prepared in HBSS-HEPES. After incubation in a 37° C. water bath for 1 h, 0.2 ml of these solutions was added in triplicate to each well and incubated at 37° C. for 6 h. The supernatants were then collected and stored at −70° C. before the measurement of […] activity. Controls included HBSS-HEPES and test materials in the absence of endotoxin. TNF-α activity of the medium and test materials was below […]. The human serum used in some experiments was a pool from normal donors.
Determination of TNF activity. TNF-α activity in the culture supernatant was determined based on its cytotoxicity for the mouse fibrosarcoma cell line WEHI 164 cells (ATCC). […] The antibody at 1:100 dilution completely eliminated the cytotoxicity in the culture supernatant of the RAW 264.7 cell stimulated by endotoxin and in the mouse sera collected 1 h after intraperitoneal injection of endotoxin.
Briefly, the 96-well tissue culture plates were seeded with 100 μl WEHI164 cells (5×10^4 cells) in RPMI-1640 medium (Life Technologies) containing 10% heat-treated fetal bovine serum, 25 mM HEPES (pH 7.3), penicillin (60 U/ml), streptomycin (60 μg/ml), and actinomycin D (4 μg/ml). After a 2-h incubation at 37° C. in a 6% CO2 incubator, 10 μl twofold serially diluted samples (culture supernatants) or standards (murine recombinant TNF-α, Genzyme) was added to each well, and incubated for 20 h. Cell viability was then determined by the addition of 10 μl MTT (Thiazolyl blue, Sigma) stock solution (5 mg/ml in saline) to each well, and the incubation was allowed to continue for 6 h. 180 μl of acid-isopropanol (containing 40 mM HCl) was added to dissolve the generated dark blue crystals. The plate was read at 570 nm with a reference of 630 nm in a microplate reader. […]

CSCC[C@H](NC(=O)[C@H](CC(N)=O)NC(=O)[C@H](CCCNC(=N)N)NC(=O)[C@H](CCC(N)=O)NC(=O)[C@H](Cc1c[nH]c2ccccc12)NC(=O)[C@H](CCC(N)=O)NC(=O)[C@H](Cc1ccccc1)NC(=O)[C@H](CS)NC(=O)[C@H](CCCCN)NC(=O)[C@@H](NC(=O)[C@H](C)NC(=O)[C@H](CCC(=O)O)NC(=O)[C@@H]1CCCN1C(=O)[C@H](CCC(N)=O)NC(=O)[C@H](CO)NC(=O)[C@@H](NC(=O)[C@H](C)NC(=O)[C@H](CS)NC(=O)[C@H](Cc1c[nH]c2ccccc12)NC(=O)[C@H](CCC(N)=O)NC(=O)[C@@H](NC(=O)[C@H](CO)NC(=O)[C@H](CCCNC(=N)N)NC(=O)[C@H](CCCNC(=N)N)NC(=O)[C@H](CCCNC(=N)N)NC(=O)[C@H](CCCNC(=N)N)NC(=O)CN)C(C)C)C(C)C)[C@@H](C)O)C(=O)N[C@@H](CCCNC(=N)N)C(=O)N[C@@H](CCCCN)C(=O)N[C@H](C(=O)N[C@@H](CCCNC(=N)N)C(=O)NCC(=O)N1CCC[C@H]1C(=O)O)C(C)C [LF-33] (H-GRRRRSVQWCAVSQPEATKCFQWQRNMRKVRGP-OH)
IC50 (read-out: concentration needed to suppress 50% TNF-α secretion induced by E. coli LPS): ~10 nM
IC50 (read-out: concentration needed to suppress 50% TNF-α secretion induced by LPS from N. meningitidis): ~500 nM
IC50 (read-out: concentration needed to suppress 50% TNF-α secretion induced by LPS from P. aeruginosa): ~100 nM
IC50 (read-out: concentration needed to suppress 50% TNF-α secretion induced by LPS from S. abortus equi): ~500 nM
IC50 (read-out: concentration needed to suppress 50% TNF-α secretion induced by lipid A): ~10 nM
